Among the data in publication PMC7819943, “Rice protein-binding microarrays: a tool to detect cis-acting elements near promoter regions in rice” are binding signal values, retold here.

By UniProt entry, the sequences of proteins in these tests, tags left out.
UniProt Q0JBA9, entry or part of it: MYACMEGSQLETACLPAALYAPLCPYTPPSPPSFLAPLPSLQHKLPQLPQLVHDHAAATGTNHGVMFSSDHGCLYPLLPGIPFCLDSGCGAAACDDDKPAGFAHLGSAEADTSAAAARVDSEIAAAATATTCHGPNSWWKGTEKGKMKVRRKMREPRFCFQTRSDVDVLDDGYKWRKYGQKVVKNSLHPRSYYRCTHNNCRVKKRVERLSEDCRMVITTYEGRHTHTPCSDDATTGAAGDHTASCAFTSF

Some of the results follow.

This test addresses OsWRKY34 (Oryza sativa, UniProt Q0JBA9 1-250). The test is described as follows: protein-binding microarray (RPBM); PBS, 2% BSA, 51.3 ng/ul salmon testes DNA, 50 uM zinc acetate, 200 nM TF, 25 C, 1 h; high values mean tight binding. The following applies: protein: recombinant; tags: N-terminal polyhistidine and DsRed monomer fusion (pET32a); label: CyDye5-dUTP incorporated in the synthesized complementary strand; 3' TTTTT single-stranded linker to array surface; dsDNA, one strand shown. A digest of the protocol: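 Transcription factors, each fused N-terminally to a polyhistidine tag and DsRed, were expressed in E. coli BL21-CodonPlus and purified on Ni–NTA. A custom Agilent array was made double-stranded by primer extension with Cy5-dUTP and blocked with 2% BSA. It was incubated with 200 nM protein in PBS, 2% BSA, salmon testes DNA and 50 µM zinc acetate at 25 °C for 1 h, then washed. The binding signal is per-feature fluorescence intensity (arbitrary units) read on an Axon 4000B scanner.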
Consider “ACCTTGCCTCGCCTCGCCTCGCCGGATCCAGATCTCCACCCGGAGTCACCTAGTGCAG”, for which the binding signal was 8250 fluorescence intensity (a.u.).

On to “TATTTTTATCTAAACTTAGTCAAACGTAAAGAAGTTTGACCGGAGTCACCTAGTGCAG”, for which the binding signal is 8180 fluorescence intensity (a.u.).

Take “CAAGATGGCTACACTGTCACTCACTCACTCCGCCGCTTTTCGGAGTCACCTAGTGCAG”: the binding signal was 9420 fluorescence intensity (a.u.).

As for “TCTGGGTCGGCTGTTTGTGTATTACACTTACTATGAATCTCGGAGTCACCTAGTGCAG”, the binding signal was 11700 fluorescence intensity (a.u.).

Regarding “GGTTTTGGTTGGGGTTTTGATACCGTCTGAGCCTGCGATTCGGAGTCACCTAGTGCAG”, the binding signal was 10900 fluorescence intensity (a.u.).

Consider “GCATCTACCCGTCCAACTCATTTATCAGCATGCAAATTTTCGGAGTCACCTAGTGCAG”, for which the binding signal is 9190 fluorescence intensity (a.u.).

Regarding “CATAAAGAGGGTGGTCGCGTTTCTTCTTCCATTTTTAATTCGGAGTCACCTAGTGCAG”, the binding signal was 10400 fluorescence intensity (a.u.).

“ACATATTATCGCATCTTCATTTTTTCTTTTCATGTGCCTTCGGAGTCACCTAGTGCAG”: the binding signal was 10800 fluorescence intensity (a.u.).

Regarding “AGCATATCTATCCATCCACCTGCGCCGATCTCTGTAACCTCGGAGTCACCTAGTGCAG”, the binding signal is 9720 fluorescence intensity (a.u.).

For “ATACGACATTCACCAGTAATCTAATGATCCAATGATCCTACGGAGTCACCTAGTGCAG”, the binding signal is 8360 fluorescence intensity (a.u.).

On to “CCAGCGACCCACCGGCCACCACCTCGCACTCTCCGTCTCCCGGAGTCACCTAGTGCAG”, for which the binding signal was 13800 fluorescence intensity (a.u.).

On to “CCACAGCACCGCCCACCTGAGCCGAGCCCGCTGCAAAATACGGAGTCACCTAGTGCAG”, for which the binding signal was 9420 fluorescence intensity (a.u.).

As for “GATGAGATTTGTCTGCCCCGATTGGTTTTCTCCATTTCTTCGGAGTCACCTAGTGCAG”, the binding signal was 9280 fluorescence intensity (a.u.).

With “CACTCTACCTAGCTTACACCTACCCACATCAACCTTACACCGGAGTCACCTAGTGCAG”, the binding signal was 12300 fluorescence intensity (a.u.).

For “GCGGGCGCACGGGTGGGTGGTGTTCTGGGGCGGAGGCAGCCGGAGTCACCTAGTGCAG”, the binding signal is 16000 fluorescence intensity (a.u.).

As for “TTCCTACCATCACTTCTCTCGTTTTGCTATCGATCTCATGCGGAGTCACCTAGTGCAG”, the binding signal was 9180 fluorescence intensity (a.u.).

Consider “AGCCACGACCCAATCTTCGCTGCGGTTGACTTTAAATTAACGGAGTCACCTAGTGCAG”, for which the binding signal is 9760 fluorescence intensity (a.u.).

As to “CCTTACATATTCATGCACCACTCCACCCATAACGGGTCAACGGAGTCACCTAGTGCAG”, the binding signal was 9100 fluorescence intensity (a.u.).

“CACACCTCTCACAATAATTATGGATGTTATACCTGGTAATCGGAGTCACCTAGTGCAG”: the binding signal was 9340 fluorescence intensity (a.u.).

As for “GAGCTCAAATCCGCAGCCTGGTGGGGAGGGGAGGTGGGTCCGGAGTCACCTAGTGCAG”, the binding signal was 13400 fluorescence intensity (a.u.).

As to “AATAGTAGGAAGTGTGCTATATTATTATCCTTGCTCTCATCGGAGTCACCTAGTGCAG”, the binding signal is 8720 fluorescence intensity (a.u.).

As to “CGACCGTTTGTATATTTTTGCCTGATAATTAAGTTGGATACGGAGTCACCTAGTGCAG”, the binding signal is 9970 fluorescence intensity (a.u.).

With “CTCCGAGGCCGGCGCCGCTGACGATGTCGTCCTAGTCTTCCGGAGTCACCTAGTGCAG”, the binding signal is 9010 fluorescence intensity (a.u.).

“GTAATTAACCAGAATTCAGGTTTTGTCAGTGCCACCATCACGGAGTCACCTAGTGCAG”: the binding signal is 9850 fluorescence intensity (a.u.).

In the case of “TTTCATTTTTTTTTACCACCTCACCTTCTGTGTTTCTTTTCGGAGTCACCTAGTGCAG”, the binding signal is 9040 fluorescence intensity (a.u.).

Consider “ATCCCTGCTCCAGCGCGATGTCGTCGATGGCTTCCACCCGCGGAGTCACCTAGTGCAG”, for which the binding signal is 8500 fluorescence intensity (a.u.).

As to “ATGGGTTTTTTGGGCTTGTAATATGCTAGTGTTAATAGTCCGGAGTCACCTAGTGCAG”, the binding signal was 9020 fluorescence intensity (a.u.).

As for “GCTATCTCGCCGTACCGCCGTCGCCGCTTCCTCTCGCACGCGGAGTCACCTAGTGCAG”, the binding signal is 15200 fluorescence intensity (a.u.).

As to “GTTTTGCATGTCCGTATTTAGTATGAATCTTTATAAGATTCGGAGTCACCTAGTGCAG”, the binding signal is 8710 fluorescence intensity (a.u.).

With “GGGTGGGTAGACCGCGCCACCTACATGTCTCATTAGTACACGGAGTCACCTAGTGCAG”, the binding signal is 8320 fluorescence intensity (a.u.).

With “AGAGCGTCTCATCGACTCTCTTACCCCGGTTTCTTCCGCGCGGAGTCACCTAGTGCAG”, the binding signal is 8790 fluorescence intensity (a.u.).

As to “AAATATTGATGTTTTTCATGCCGTCCATTTCACGACATCACGGAGTCACCTAGTGCAG”, the binding signal is 8060 fluorescence intensity (a.u.).

“ACATTTGTTGGTGGACTGCAATTTTCTTTCTCAGCTTTAACGGAGTCACCTAGTGCAG”: the binding signal was 11100 fluorescence intensity (a.u.).

Turning to “TCATGGTTCTTTTGATTAGTTCATGATGGTTTTGAAATTACGGAGTCACCTAGTGCAG”, the binding signal is 8890 fluorescence intensity (a.u.).

For “TCCAACCATTACTGCATCGCGTCAGCTCACGTGGACCCACCGGAGTCACCTAGTGCAG”, the binding signal is 8260 fluorescence intensity (a.u.).

For “CTCTCAGCACTCTGCTCTAGTTTCTTGGAGGTCCTGCACCCGGAGTCACCTAGTGCAG”, the binding signal was 8470 fluorescence intensity (a.u.).

As for “ACCCAAAAACTGTCCCTTATTTGCTACCGGTACCATTACGCGGAGTCACCTAGTGCAG”, the binding signal was 8570 fluorescence intensity (a.u.).

Regarding “ATTTTAATCAATGTCATGTTGTGTTCTGCGTGCATGTTTTCGGAGTCACCTAGTGCAG”, the binding signal is 10700 fluorescence intensity (a.u.).

“ATGAGCATTATCCATCAGTATCCGCTACGTTTTCATCCCACGGAGTCACCTAGTGCAG”: the binding signal was 8120 fluorescence intensity (a.u.).

As for “CTCCTCTCGCCGCCGCCGCCACCGCCACCGCCGCCGCTCCCGGAGTCACCTAGTGCAG”, the binding signal was 10100 fluorescence intensity (a.u.).

As to “TGGCTAACAGGTTTTACATTATTTGGTCCATAATTAACTACGGAGTCACCTAGTGCAG”, the binding signal was 8710 fluorescence intensity (a.u.).

As for “TTCCCAAACTCGATCACTCGCTTCTCTCACCTGCTCGAGACGGAGTCACCTAGTGCAG”, the binding signal is 8970 fluorescence intensity (a.u.).
